# According to PubChem BioAssay AID504444 (National Center for Advancing Translational Sciences (NCATS), 2011):
# Out of some 360,000 compounds screened, about 7,500 (2.1%) were called active. Inconclusive means that the source gave no clear call. Such entries were picked first, then a sample of the others. Calls come from the whole dose curve; as a rule, active = well fitted inhibition curve with a large enough effect; inconclusive = small, poorly fitted or top-dose-only effect, or effect the other way; inactive = flat fitted curve, though single readings scatter. Potencies of inconclusive entries are doubtful fits and often do not repeat.
# Experiment: Nrf2 qHTS screen for inhibitors; note: nearly all actives have a fitted effect of over 60% in size
# Settings: A549 ARE-Fluc reporter, luciferase luminescence, 18-24 h; series mostly up to 46 µM
# Outline: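 Two sequential reads on A549 ARE_Fluc cells exposed to compound for 18-24 h: a CellTiter-Fluor fluorescence read for viability, then a luciferase luminescence read for Nrf2/ARE activity.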
# Potency is the fitted concentration of half-maximal effect.
row,Structure (SMILES),Potency
1,NC(=O)c1c(NC(=O)c2ccc(F)cc2)sc2c1CCC2,"inconclusive: 8.2 µM [activator, partial curve]"
2,Cc1ccc(-c2nn(-c3ccccc3)cc2CNCc2ccccc2)cc1,"inconclusive: 25.9 µM [activator, single point]"
3,O=C(Nc1cc(Cl)ccc1N1CCOCC1)c1cc2ccccc2o1,"inconclusive: 6.51 µM [activator, single point]"
4,Cc1ccc2nc(-c3ccccc3)nn2c1,"inconclusive: 0.259 µM [activator, full curve, poor fit]"
5,O=C1NC(=Nc2ccc(Cl)cc2)SC1Cc1cccc(Cl)c1Cl (stereo not drawn),"inconclusive: 29.1 µM [falling, single point]"
6,Cc1[nH]n(-c2ccc([N+](=O)[O-])cc2)c(=O)c1/C=N/N1CCOCC1,"inconclusive: 29.1 µM [activator, single point]"
7,CCOc1ccc(NC(=O)C2CCN(S(=O)(=O)c3c(C)noc3/C=C/c3cccs3)CC2)cc1,inactive
8,O=C(CN1C(=O)c2ccccc2S1(=O)=O)c1ccc(F)cc1,active: 13 µM
9,CCc1ccccc1NC(=O)c1cc2sccc2n1C,"inconclusive: 16.4 µM [activator, partial curve, poor fit]"
10,CCOc1ccc2nc(N3CCCC(C(=O)NCCCN4CCCCC4)C3)sc2c1 (stereo not drawn),"inconclusive: 4.61 µM [activator, partial curve, poor fit]"
11,O=C(COc1ccc(-c2ccccc2)cc1)N1CCN(C(=O)c2cccs2)CC1,"inconclusive: 20.6 µM [falling, partial curve, poor fit]"
12,COc1ccc(C(=O)Nc2ccc3oc(-c4ccc5ccccc5c4)nc3c2)cc1Br,inactive
13,Cc1occc1C(=O)N1CCN(c2ccc([N+](=O)[O-])cc2)CC1,"inconclusive: 9.2 µM [falling, single point]"
14,Oc1ccc(C[C@@H]2CNC(=S)N2CCCCC2CCCCC2)cc1,inactive
15,COc1ccc(Cn2c(/C=C/c3ccccc3)nc3ccccc32)cc1,"inconclusive: 0.731 µM [activator, full curve, poor fit]"
16,Cc1cccc(C(=O)NC(=S)N(C)C2CCCCC2)c1,"inconclusive: 25.9 µM [activator, single point]"
17,COc1ccc(C#Cc2ccc3c(=O)c4ccccc4n(C)c3c2)cc1,"inconclusive: 29.1 µM [falling, single point]"
18,O=C(/C=C/c1cccc(Cl)c1)OCc1cn2cc(Cl)ccc2n1,"inconclusive: 5.17 µM [activator, partial curve, poor fit]"

# In another format: two of the compounds above
row	Structure (SMILES)	Potency
1	NC(=O)c1c(NC(=O)c2ccc(F)cc2)sc2c1CCC2	inconclusive: 8.2 µM [activator, partial curve]
10	CCOc1ccc2nc(N3CCCC(C(=O)NCCCN4CCCCC4)C3)sc2c1 (stereo not drawn)	inconclusive: 4.61 µM [activator, partial curve, poor fit]
